In paper doi:10.1101/2020.05.04.064501:
Results are given in words; binding and its absence hold for the method and conditions named. Some entries that bind do so weakly or less than the wild type. Where a sequence is shown, tags or fusion partners need not be part of it.

T1: ASY1^1-300-BD (ASY1 HORMA domain) (Arabidopsis thaliana) (UniProt F4HRV8)
T1 sequence: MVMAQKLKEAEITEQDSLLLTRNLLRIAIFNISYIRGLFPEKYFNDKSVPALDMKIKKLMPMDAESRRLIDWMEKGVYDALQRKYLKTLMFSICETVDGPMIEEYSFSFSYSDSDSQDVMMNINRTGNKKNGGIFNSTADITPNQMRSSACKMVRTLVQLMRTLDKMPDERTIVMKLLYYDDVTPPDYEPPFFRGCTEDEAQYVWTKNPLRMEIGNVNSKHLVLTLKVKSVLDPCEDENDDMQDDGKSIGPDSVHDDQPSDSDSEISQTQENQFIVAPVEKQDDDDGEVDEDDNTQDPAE

T2: ASY1^1-300/Δ10-BD (Arabidopsis thaliana) (UniProt F4HRV8)
T2 sequence: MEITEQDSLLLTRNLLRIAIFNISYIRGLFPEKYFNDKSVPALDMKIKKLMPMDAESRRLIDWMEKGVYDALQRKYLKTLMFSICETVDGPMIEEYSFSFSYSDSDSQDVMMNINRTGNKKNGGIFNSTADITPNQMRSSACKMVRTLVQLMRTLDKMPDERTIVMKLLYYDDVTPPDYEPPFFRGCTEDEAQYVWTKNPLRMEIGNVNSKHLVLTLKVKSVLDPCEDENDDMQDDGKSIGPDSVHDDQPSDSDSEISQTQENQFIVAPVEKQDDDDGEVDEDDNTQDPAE


Key:
[1] = biological target: T1, ASY1^1-300-BD (ASY1 HORMA domain) (Arabidopsis thaliana); assay: two-hybrid
[2] = biological target: T2, ASY1^1-300/Δ10-BD (Arabidopsis thaliana); assay: two-hybrid

Row | Binder | binding [1] | binding [2]
1 | DRRGRKTSMVREPILQYSKRQKSQAN (domain or fragment, UniProt F4HRV8 571-596) [ASY1^571-596-AD (closure motif of ASY1)] | binds | binds
2 | ASY3-FL-AD (protein, UniProt Q0WR66 1-793) MSDYRSFGSNYHPSSQSRKISIGVMADSQPKRNLVPDKDDGDVIARVEKLKSATVTELQANKKEKSDLAAKQRNSAQVTGHVTSPWRSPRSSHRKLGTLESVLCKQTSSLSGSKGLNKGLNGAHQTPARESFQNCPISSPQHSLGELNGGRNDRVMDRSPERMEEPPSAVLQQKVASQREKMDKPGKETNGTTDVLRSKLWEILGKASPANNEDVNSETPEVEKTNFKLSQDKGSNDDPLIKPRHNSDSIETDSESPENATRRPVTRSLLQRRVGAKGVQKKTKAGANLGRKCTEQVNSVFSFEEGLRGKIGTAVNSSVMPKKQRGRRKNTVVKCRKAHSRKKDEADWSRKEASKSNTPPRSESTETGKRSSSSDKKGSSHDLHPQSKARKQKPDISTREGDFHPSPEAEAAALPEMSQGLSKNGDKHERPSNIFREKSVEPENEFQSPTFGYKAPISSPSPCCSPEASPLQPRNISPTLDETETPIFSFGTKKTSQGTTGQASDTEKRLPDFLEKKRDYSFRRESSPEPNEDLVLSDPSSDERDSDGSREDSPVLGHNISPEERETANWTNERSMLGPSSVKRNSNLKGIGRVVLSPPSPLSKGIDKTDSFQHCSEMDEDEDEGLGRAVALFAMALQNFERKLKSAAEKKSSEIIASVSEEIHLELENIKSHIITEAGKTSNLAKTKRKHAETRLQEQEEKMRMIHEKFKDDVSHHLEDFKSTIEELEANQSELKGSIKKQRTSHQKLIAHFEGGIETKLDDATKRIDSVNKSARGKMLQLKMIVAECLRDD | binds | 
3 | ASY3^1-200-AD (domain or fragment, UniProt Q0WR66 1-200) MSDYRSFGSNYHPSSQSRKISIGVMADSQPKRNLVPDKDDGDVIARVEKLKSATVTELQANKKEKSDLAAKQRNSAQVTGHVTSPWRSPRSSHRKLGTLESVLCKQTSSLSGSKGLNKGLNGAHQTPARESFQNCPISSPQHSLGELNGGRNDRVMDRSPERMEEPPSAVLQQKVASQREKMDKPGKETNGTTDVLRSKL | binds | 
